Data reported in PMC10094722.
Where a chain is given by its changes, count along the chain named. No constants are given. Whether binding was seen depends on the method and setting. For some of these results: Binding seen in cells or lysates may run through a third protein. Some results given as binding are weak or reduced against the parent protein; the word gives no strength.

Chains of the proteins cited; added tags and fusions are not shown.
UniProt P22636: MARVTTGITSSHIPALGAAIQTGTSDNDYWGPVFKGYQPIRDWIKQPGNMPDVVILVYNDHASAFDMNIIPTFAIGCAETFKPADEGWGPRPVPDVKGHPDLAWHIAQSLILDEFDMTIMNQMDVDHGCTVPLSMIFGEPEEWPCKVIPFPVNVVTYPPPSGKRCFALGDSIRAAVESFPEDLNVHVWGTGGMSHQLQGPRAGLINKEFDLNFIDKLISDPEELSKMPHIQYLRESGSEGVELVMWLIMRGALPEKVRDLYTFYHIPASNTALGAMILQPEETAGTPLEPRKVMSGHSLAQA

How the values were obtained:
[1] = molecular target: T1, LigA F103A (Sphingobium sp. strain SYK-6) (UniProt P22635); test: native gel or EMSA; 10% native polyacrylamide gel of purified LigAB (wild-type, F103A, F103S), Coomassie stained, 6.25 to 50 ug protein per lane; masses calculated from the bands; both purified
T1 sequence: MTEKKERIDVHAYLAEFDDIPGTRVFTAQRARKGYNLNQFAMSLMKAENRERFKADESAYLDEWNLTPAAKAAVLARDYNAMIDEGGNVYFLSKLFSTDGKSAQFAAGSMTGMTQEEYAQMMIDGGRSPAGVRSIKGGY

[2] = molecular target: T2, LigA F103S (Sphingobium sp. strain SYK-6) (UniProt P22635); test: as above
T2 sequence: T1 sequence with A103S

[3] = molecular target: T3, LigA, alpha subunit of protocatechuate 4,5-dioxygenase (LigAB), wild-type (Sphingobium sp. strain SYK-6) (UniProt P22635); test: as above
T3 sequence: T1 sequence with A103F

[4] = molecular target: T1, LigA F103A (Sphingobium sp. strain SYK-6); test: pull-down; co-purification of untagged LigB with His6-LigA on HisPur Ni-NTA resin from lysate of co-expressing E. coli, aerobic; 50 mM HEPES, 300 mM NaCl, pH 8.0, imidazole step gradient (62.5, 125, 250 mM); fractions on SDS-PAGE, Coomassie, quantified with ImageQuant
[5] = molecular target: T4, LigA F103H (Sphingobium sp. strain SYK-6) (UniProt P22635); test: as above
T4 sequence: T1 sequence with A103H

[6] = molecular target: T5, LigA F103L (Sphingobium sp. strain SYK-6) (UniProt P22635); test: as above
T5 sequence: T1 sequence with A103L

[7] = molecular target: T2, LigA F103S (Sphingobium sp. strain SYK-6); test: as above
[8] = molecular target: T6, LigA F103T (Sphingobium sp. strain SYK-6) (UniProt P22635); test: as above
T6 sequence: T1 sequence with A103T

[9] = molecular target: T7, LigA F103V (Sphingobium sp. strain SYK-6) (UniProt P22635); test: as above
T7 sequence: T1 sequence with A103V

[10] = molecular target: T3, LigA, alpha subunit of protocatechuate 4,5-dioxygenase (LigAB), wild-type (Sphingobium sp. strain SYK-6); test: as above

Measured: binding

LigB, beta subunit of protocatechuate 4,5-dioxygenase (LigAB) (from UniProt P22636 1-302)
binds: all assays above
